These are yes or no findings as the source states them, for the method shown. For some of these results: A result given as binding can be weak or reduced; the word gives no strength. For some of these results: Sequences can lack the tags named with a protein. For some of these results: In cells and extracts the contact can be indirect.
Legend:
[1] = biological target: T1, tandem affinity purification cMyc-SPA1 (TAP-SPA1) (Arabidopsis thaliana) (UniProt Q9SYX2); experiment: co-IP; cytosolic proteins of TAP-SPA1 seedlings (dark or 4 h white light) incubated with anti-cMyc; blots anti-cMyc and anti-eIF2α
T1 sequence: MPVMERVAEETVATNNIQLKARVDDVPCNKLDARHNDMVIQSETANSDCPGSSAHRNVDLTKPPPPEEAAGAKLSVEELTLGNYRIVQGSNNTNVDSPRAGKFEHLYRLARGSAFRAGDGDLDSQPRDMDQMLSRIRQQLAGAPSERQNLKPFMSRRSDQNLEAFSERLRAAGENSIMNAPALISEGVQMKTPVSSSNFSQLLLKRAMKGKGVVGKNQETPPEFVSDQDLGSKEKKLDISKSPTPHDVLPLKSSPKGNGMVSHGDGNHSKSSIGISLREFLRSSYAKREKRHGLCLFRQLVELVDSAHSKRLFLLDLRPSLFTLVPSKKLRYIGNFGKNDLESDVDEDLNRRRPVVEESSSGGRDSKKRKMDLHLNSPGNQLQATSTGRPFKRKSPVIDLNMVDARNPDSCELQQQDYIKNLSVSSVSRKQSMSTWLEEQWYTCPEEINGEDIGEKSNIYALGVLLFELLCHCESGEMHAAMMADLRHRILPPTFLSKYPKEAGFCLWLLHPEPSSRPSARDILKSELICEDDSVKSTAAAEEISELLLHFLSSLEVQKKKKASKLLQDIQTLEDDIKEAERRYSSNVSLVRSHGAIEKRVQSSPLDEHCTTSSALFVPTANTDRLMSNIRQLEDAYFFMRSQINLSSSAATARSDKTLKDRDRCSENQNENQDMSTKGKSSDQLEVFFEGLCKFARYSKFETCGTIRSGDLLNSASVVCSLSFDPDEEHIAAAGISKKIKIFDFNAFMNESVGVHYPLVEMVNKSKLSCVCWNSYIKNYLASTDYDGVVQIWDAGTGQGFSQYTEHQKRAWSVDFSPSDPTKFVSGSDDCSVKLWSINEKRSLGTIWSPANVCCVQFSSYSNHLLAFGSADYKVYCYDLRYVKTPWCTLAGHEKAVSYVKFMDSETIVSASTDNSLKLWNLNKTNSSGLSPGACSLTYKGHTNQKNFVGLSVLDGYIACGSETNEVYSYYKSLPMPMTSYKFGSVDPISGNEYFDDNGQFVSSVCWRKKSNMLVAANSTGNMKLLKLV

Sequences of proteins named here, by UniProt entry; tags and fusion partners are left off. A change or cut given only in a name is not applied to a line headed by its entry.
UniProt Q9SIZ2: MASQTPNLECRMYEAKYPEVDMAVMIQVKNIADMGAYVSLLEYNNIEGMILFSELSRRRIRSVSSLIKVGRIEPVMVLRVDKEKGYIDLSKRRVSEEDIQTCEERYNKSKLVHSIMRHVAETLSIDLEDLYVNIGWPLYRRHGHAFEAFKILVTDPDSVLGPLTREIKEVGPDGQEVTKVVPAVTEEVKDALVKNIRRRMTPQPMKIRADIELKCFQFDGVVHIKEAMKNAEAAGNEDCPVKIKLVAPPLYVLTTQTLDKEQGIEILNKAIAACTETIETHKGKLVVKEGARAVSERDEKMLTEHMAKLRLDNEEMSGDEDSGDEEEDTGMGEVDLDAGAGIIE

[2] = biological target: eIF2α.2-GFP (wild-type form) (Arabidopsis thaliana) (UniProt Q9SIZ2); experiment: condition: only etiolated seedlings kept in the dark; co-IP; as a3, but four-day-old etiolated seedlings kept in the dark
[3] = biological target: eIF2α.2-GFP (wild-type form) (Arabidopsis thaliana) (UniProt Q9SIZ2); experiment: co-IP; total extracts of eIF2α.1-GFP or eIF2α.2-GFP seedlings mixed with extract of TAP-SPA1 seedlings; GFP-Trap; blots anti-cMyc and anti-GFP; four-day-old etiolated seedlings illuminated with white light for 4 h
[4] = biological target: eIF2α.2-YC (Arabidopsis thaliana) (UniProt Q9SIZ2); experiment: split reporter; BiFC; SPA1-YN and eIF2α-YC co-transfected into Arabidopsis Col-0 protoplasts; light condition
[5] = biological target: eIF2α.2 full length fused to the GAL4 DNA binding domain (Arabidopsis thaliana) (UniProt Q9SIZ2); experiment: two-hybrid; GAL4 system; eIF2α homologs on the DNA-binding domain (pGBT9, bait), SPA1 forms on the activation domain (pGAD424, prey); yeast AH109; growth on SD-Leu-Trp-His, 30 °C
[6] = biological target: eIF2α.2 of the pull-down assay of Supplementary Fig. 3 (Arabidopsis thaliana) (UniProt Q9SIZ2); experiment: pull-down; pull-down of Supplementary Fig. 3; format not told in the text shown

In the case of native eIF2α, the binding [1] is reported as “binds”.

B1: tandem affinity purification cMyc-SPA1 (TAP-SPA1) (protein, UniProt Q9SYX2 1-1029)
chain: T1 sequence
B1 was tested, and the binding [2] was “no binding” and the binding [3] was “binds”.

B2: SPA1-YN (protein, UniProt Q9SYX2 1-1029)
chain: T1 sequence
For B2, the binding [4] was “binds”.

B3: SPA1 full length fused to the GAL4 activation domain (protein, UniProt Q9SYX2 1-1029)
chain: T1 sequence
With B3 the binding [5] was “binds”.

B4: SPA1 kinase domain fused to the GAL4 activation domain (domain or fragment, UniProt Q9SYX2 188-529)
chain: VQMKTPVSSSNFSQLLLKRAMKGKGVVGKNQETPPEFVSDQDLGSKEKKLDISKSPTPHDVLPLKSSPKGNGMVSHGDGNHSKSSIGISLREFLRSSYAKREKRHGLCLFRQLVELVDSAHSKRLFLLDLRPSLFTLVPSKKLRYIGNFGKNDLESDVDEDLNRRRPVVEESSSGGRDSKKRKMDLHLNSPGNQLQATSTGRPFKRKSPVIDLNMVDARNPDSCELQQQDYIKNLSVSSVSRKQSMSTWLEEQWYTCPEEINGEDIGEKSNIYALGVLLFELLCHCESGEMHAAMMADLRHRILPPTFLSKYPKEAGFCLWLLHPEPSSRPSARDILKSELI
In the case of B4, the binding [5] is reported as “binds”.

B5: SPA1 of the pull-down assay of Supplementary Fig. 3 (protein, UniProt Q9SYX2 1-1029)
chain: T1 sequence
For B5, the binding [6] was “binds”.

Source: PMC11043401
